Values from PubChem BioAssay AID504764 (Drosophila RNAi Screening Center, 2011).
Purpose: 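Knock-downs that raise or lower a Notch target reporter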 (primary screen). System: Drosophila Kc167 cells. Reagents: long dsRNA against Drosophila genes. Duration: about 5 days (4 days dsRNA, then 24 h after transfection). Conditions: transfection of constitutively active membrane-tethered Notch lacking the extracellular domain, read 24 h later. Read-out: 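Firefly luciferase from an E(spl)m3 reporter with active Notch, plus control-promoter and uninduced reporter wells for normalisation; unnormalised counts, duplicate wells a and b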. Scale: induced reporter light, run 1, well a and induced reporter light, run 1, well b: higher = more light from the Notch target reporter with active Notch; control promoter light, run 1, well a and control promoter light, run 1, well b: higher = more light from the viral control promoter (cell number, transfection, viability); uninduced reporter light, run 1, well a: higher = more light from the Notch target reporter without active Notch. Rule for the call: 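Hit if the duplicate-averaged log2 ratio of induced to control-promoter light gives a plate-wise z beyond ±2, or induced to uninduced beyond ±1.8; weak-control or discordant-duplicate wells dropped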. Calls: active = modifier hit (raised or lowered Notch signal); inactive = not a hit.
The deposit covers about 22,000 reagents; this is an unselected part of those with a known target gene and a result. Over the whole deposit, 403 (1.9%) got an active call. 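Unnormalised raw counts per well; ratio z-scores behind the hit calls and whether each hit raises or lowers signal are not deposited.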 Unmarked entries are inactive. A plus sign joins genes that one reagent is predicted to hit. The record does not give: the amount of reagent.

gene,dsRNA,"induced reporter light, run 1, well a","induced reporter light, run 1, well b","control promoter light, run 1, well a","control promoter light, run 1, well b","uninduced reporter light, run 1, well a"
CG33159,DRSC08199,1.70e5,1.68e5,2.17e5,2.35e5,12310
ValRS,DRSC06864,1.29e5,1.13e5,1.47e5,1.56e5,10010
Orct2,DRSC14613,1.53e5,1.55e5,1.46e5,1.75e5,12220
CG9953,DRSC11106,2.00e5,1.67e5,2.03e5,1.48e5,11595
l(2)k05911,DRSC02523,1.69e5,1.69e5,2.59e5,2.76e5,13975
Rel,DRSC16819,1.14e5,1.34e5,83525,83780,9565
GstD6,DRSC16687,90840,93685,85145,62175,5690
CG9799,DRSC16567,1.16e5,1.25e5,96635,98600,7700
gsb,DRSC04692,2.05e5,2.25e5,1.59e5,1.80e5,13980
Tis11,DRSC20293,63675,43145,62330,57255,10260
CG34354,DRSC13863,2.24e5,2.20e5,2.19e5,2.43e5,19080
CG34354,DRSC14515,5765,5505,12965,12445,2310
CG34354,DRSC14558,4782,5055,9305,9810,2175
CG34354,DRSC15645,1.46e5,1.29e5,1.78e5,1.42e5,11020
CG31010,DRSC14006,92590,1.09e5,1.46e5,1.28e5,9520
Mtch,DRSC08679,63945,86790,1.44e5,1.75e5,6125
crm,DRSC18754,2.14e5,2.45e5,3.10e5,3.33e5,14860
Fur1,DRSC13707,2.58e5,2.26e5,2.26e5,2.50e5,18655
Fur1,DRSC16676,2.18e5,2.67e5,2.96e5,3.01e5,14920
CG32733 (retired record),DRSC17481,73900,73775,65015,51795,7350
CG7381,DRSC16238,1.19e5,1.46e5,89295,88485,11242
trio,DRSC07928,2.41e5,2.26e5,2.55e5,2.40e5,16590
trio,DRSC08527,53590,49645,32900,29145,9650
trio,DRSC08740,1.15e5,1.57e5,2.38e5,2.33e5,5565
Sbat,DRSC00160,96495,96865,1.63e5,1.61e5,8890
Tpi,DRSC16888,1.95e5,2.67e5,3.28e5,3.56e5,18075
CG31805,DRSC01563,72605,69565,75510,76375,6520
RpL18,DRSC11016,2.13e5,1.81e5,2.51e5,1.87e5,10005
CG5854,DRSC15894,1.65e5,2.03e5,2.71e5,2.38e5,15085
tamo,DRSC04446,1.50e5,1.82e5,1.05e5,1.32e5,12930
CG9676,DRSC20204,72475,67210,85700,73835,9160
CG5246,DRSC15751,1.90e5,2.21e5,2.32e5,2.34e5,16370
CG32832,DRSC01562,91740,86120,67300,53290,6615
eIF3g2,DRSC14275,1.40e5,1.42e5,1.69e5,1.60e5,9670
AlkB,DRSC19115,92740,84470,82215,88870,7315
CG9517 (retired record),DRSC20192,1.44e5,93105,1.24e5,97360,14220
CG9517 (retired record),DRSC20193,83930,67575,87880,77810,11690
Gadd45,DRSC06033,1.65e5,1.45e5,2.00e5,2.01e5,14675
CG31688 + CG31687,DRSC02116,28665,28360,19885,26145,2820
CG10341,DRSC02040,2.21e5,2.04e5,1.93e5,2.30e5,18695
CG17562,DRSC15243,3.53e5 (active),3.33e5,2.58e5,2.61e5,22742
ph-d,DRSC18819,7510,8365,17155,14875,2825
Rhp,DRSC20279,1.30e5,1.10e5,1.20e5,1.08e5,13735
Tgt,DRSC00672,72325,76165,77405,69965,5010
tctn + B9d2,DRSC03160,1.70e5,1.40e5,2.01e5,1.89e5,9350
CG3603,DRSC18317,1.07e5,1.03e5,1.55e5,2.33e5,7840
Ddc,DRSC03314,81080,56140,50480,60695,3435
Tsp42A,DRSC04862,1.77e5,1.49e5,1.91e5,1.70e5,11460
CG15200,DRSC19647,1.06e5,1.22e5,2.10e5,1.86e5,9850
Tret1-2,DRSC07117,1.09e5,1.31e5,1.50e5,1.49e5,10410
Nup98-96,DRSC14209,1.81e5,1.65e5,1.89e5,2.21e5,12230
Nup98-96,DRSC14210,69895,60155,81590,70160,7095
MRG15,DRSC16731,1.12e5,1.20e5,92830,89940,10160
CG3502,DRSC04381,93740,90175,73545,79360,6540
CSN7,DRSC06807,1.52e5 (active),1.34e5,1.21e5,1.28e5,20645
CSN7,DRSC06808,1.15e5,1.29e5,1.03e5,1.27e5,15335
CG34409,DRSC14577,1.30e5,1.16e5,96825,57440,5785
Oscillin,DRSC03001,1.83e5,1.59e5,1.86e5,1.69e5,11400
HDAC6,DRSC20252,2.13e5,1.99e5,2.88e5,2.63e5,13700
dsb,DRSC08407,12280,13125,25955,25300,2970
dsb,DRSC08542,91025,94205,1.31e5,1.98e5,5895
CG17600,DRSC20638,83255,73325,1.12e5,1.32e5,9550
CG17600,DRSC20640,66020,93465,73530,1.03e5,8210
CG6168,DRSC10596,1.28e5,1.30e5,1.84e5,1.30e5,7055

Entries above whose target name starts with R or r:
gene,dsRNA,"induced reporter light, run 1, well a","induced reporter light, run 1, well b","control promoter light, run 1, well a","control promoter light, run 1, well b","uninduced reporter light, run 1, well a"
Rel,DRSC16819,1.14e5,1.34e5,83525,83780,9565
RpL18,DRSC11016,2.13e5,1.81e5,2.51e5,1.87e5,10005
Rhp,DRSC20279,1.30e5,1.10e5,1.20e5,1.08e5,13735
